Data published in PubChem BioAssay AID504467 (National Center for Advancing Translational Sciences (NCATS), 2011).
In all, about 330,000 compounds went through this assay and about 7,700 (2.3%) were called active. The inconclusive results got no clear call from the source; some entries with a clear call stand among them for comparison. The call rests on the fitted dose curve; in most records, active means well fitted inhibition curve with a large enough effect; inconclusive means small, poorly fitted or top-dose-only effect, or effect the other way; inactive means flat fitted curve, though single readings scatter. A potency beside an inconclusive call is a rough fit, not a confirmed value.

test: qHTS screen for small molecules that inhibit ELG1-dependent DNA repair in human embryonic kidney (HEK293T) cells expressing luciferase-tagged ELG1; details: HEK293T ELG1-luciferase reporter, luminescence, 16 h, DNA damage induced by 5-fluorouridine; activity change, negative = inhibition: at 46.1 µM (top of the series); further: nearly all actives have a fitted effect of over 55% in size
How it was run: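 Luminescence from the luciferase reporter, measured 30 min after ONE-Glo reagent at room temperature, was the read-out. Beforehand, 2,000 cells per well were exposed for 16 hr at 37 °C to 5-fluorouridine together with compound or vehicle.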
On the % scale 0 is the no-effect control and ±100 the full control effect; potency means the concentration at half of the fitted maximal effect.

Row | Compound | Potency | activity change, negative = inhibition
1 | O=C(C1COc2ccccc2O1)N1CCn2c(nc3ccccc32)C1 (stereo not drawn) | inconclusive: 14.6 µM [inhibitor, partial curve] | –
2 | CCCC1(c2ccccc2)NC(=O)N(CC(=O)Nc2cc(S(=O)(=O)N3CCOCC3)ccc2Cl)C1=O (stereo not drawn) | – | inactive: -7.97%
3 | COc1ccc(C(=O)Oc2coc(CSc3nnc(NC(=O)c4cccs4)s3)cc2=O)cc1 | inconclusive: 29.1 µM [activator, partial curve, poor fit] | –
4 | O=C(CN1CCN(C(c2ccccc2)c2ccccc2)CC1)NCc1ccccc1 | – | inactive: -16.6%
5 | O=[N+]([O-])c1ccc(F)c(N=Cc2ccc(Br)s2)c1 | – | inactive: 22.8%
6 | Cn1c(SCCOc2ccccc2F)nc2ccccc2c1=O | – | inactive: 1.27%
7 | CCN(CC)c1ccc(/C=N/NC(=O)Nc2ccccc2)cc1 | inconclusive: 18.3 µM [activator, partial curve] | –
8 | O=C(c1ccc(Cl)c(S(=O)(=O)N2CCOCC2)c1)N1CCN(c2ccccc2)CC1 | active: 0.082 µM | –
9 | COc1ccc(OC(C)C(=O)Nc2cccc(OC)c2)cc1 (stereo not drawn) | – | inactive: -1.04%
10 | CN(Cc1ccccc1)C(=O)COC(=O)c1cc(-c2ccc(Cl)s2)nc2ccccc12 | inconclusive: 29.1 µM [inhibitor, partial curve, poor fit] | –
11 | CCc1ccc(C(=O)COC(=O)c2n[nH]c3ccccc23)cc1 | inconclusive: 32.6 µM [activator, single point] | –
12 | O=C(COC(=O)c1cc(=O)[nH]c2ccccc12)Nc1ccc(Cl)cn1 | – | inactive: 7.78%
13 | CC(=O)N1c2ccc(S(=O)(=O)N3CCCC(C(=O)N4CCCCC4)C3)cc2CC1C (stereo not drawn) | – | inactive: -11.1%
14 | Cc1csc(-c2cnn(-c3ccccc3)c2NC(=O)c2ccc(C(F)(F)F)cc2)n1 | – | inactive: -6.12%
15 | O=C(Nc1ccccc1)Nc1nc2ccccc2s1 | inconclusive: 1.83 µM [activator, full curve] | –
16 | Cc1ccsc1/C=N/NC(=S)NCc1ccccc1 | inconclusive: 25.9 µM [inhibitor, single point] | –
17 | CCNC(=O)COc1ccc(CC)cc1 | inconclusive: 14.6 µM [activator, partial curve] | –
18 | O=C(CSCc1ccccc1Cl)Nc1ccc2c(c1)OCCO2 | inconclusive: 20.6 µM [activator, partial curve] | –
19 | CCCCCCOc1ccc(/C=c2\s/c(=C(/C#N)C(=O)NCc3ccco3)n(-c3ccccc3)c2=O)cc1 | – | inactive: 13%
20 | COc1ccc(C(=O)N2CCN(c3nc(C4CC4)nc4sc(C)c(C)c34)CC2)cc1 | inconclusive: 29.1 µM [inhibitor, single point] | –
21 | CCC(CC)C(=O)c1c[nH]c(C(=O)NCc2ccccn2)c1 | – | inactive: -3.04%
22 | COc1ccccc1-c1ccc(NC2CCCCC2)nn1 | inconclusive: 8.2 µM [activator, partial curve] | –
23 | CN(CC(=O)N1CCN(c2ccc(F)cc2)CC1)S(=O)(=O)c1ccc(F)cc1 | inconclusive: 35.5 µM [inhibitor, single point] | –
24 | Cc1ccc(NC(=O)c2nn(C34CC5CC(CC(C5)C3)C4)cc2[N+](=O)[O-])cc1 | – | inactive: 10.1%
25 | COc1ccc(-c2cc(C(F)(F)F)n3ncc(C(=O)Nc4c(C)n(C)n(-c5ccccc5)c4=O)c3n2)cc1 | – | inactive: -3.66%

7 entries drawn at random from the list so far:
Row | Compound | Potency | activity change, negative = inhibition
12 | O=C(COC(=O)c1cc(=O)[nH]c2ccccc12)Nc1ccc(Cl)cn1 | – | inactive: 7.78%
7 | CCN(CC)c1ccc(/C=N/NC(=O)Nc2ccccc2)cc1 | inconclusive: 18.3 µM [activator, partial curve] | –
18 | O=C(CSCc1ccccc1Cl)Nc1ccc2c(c1)OCCO2 | inconclusive: 20.6 µM [activator, partial curve] | –
13 | CC(=O)N1c2ccc(S(=O)(=O)N3CCCC(C(=O)N4CCCCC4)C3)cc2CC1C (stereo not drawn) | – | inactive: -11.1%
6 | Cn1c(SCCOc2ccccc2F)nc2ccccc2c1=O | – | inactive: 1.27%
11 | CCc1ccc(C(=O)COC(=O)c2n[nH]c3ccccc23)cc1 | inconclusive: 32.6 µM [activator, single point] | –
16 | Cc1ccsc1/C=N/NC(=S)NCc1ccccc1 | inconclusive: 25.9 µM [inhibitor, single point] | –

Further records.

Row | Compound | Potency | activity change, negative = inhibition
26 | C/C(Cl)=C/Cc1c(C)[nH]c2ccc(C)cc2c1=O | inconclusive: 16.4 µM [activator, single point] | –
27 | COc1cccc(N2CCc3c(C)nc4ccc(Cl)cc4c32)c1 | active: 23.1 µM | –
28 | CCOc1ccc(-c2c(=O)n(OCc3nc4ccccc4[nH]3)c3ccccc3[n+]2[O-])cc1 | inconclusive: 25.9 µM [inhibitor, single point] | –
29 | COc1ccc(-c2cc(-c3nnc(COC(=O)C4CC4)o3)c3ccccc3n2)cc1OC | active: 7.31 µM | –
30 | COc1cccc(CN2CCN(C(=O)c3cccc(OC)c3)CC2)c1 | inconclusive: 7.94 µM [inhibitor, partial curve] | –
31 | COc1cccc(CN(C)CC(=O)NC(=O)NCc2ccccc2)c1 | – | inactive: -4.25%
32 | Cc1cc(N=NC(=O)c2ccccc2O)c2ccccc2c1O | inconclusive: 2.59 µM [activator, partial curve] | –
33 | CCOC(=O)C1=C(Nc2ccccc2)CC(C)(O)C(C(=O)OCC)C1c1ccc(Br)cc1 (stereo not drawn) | inconclusive: 18.4 µM [inhibitor, single point] | –
34 | O=C(CN(Cc1ccccc1Cl)C(=O)c1csnn1)NCCc1ccccc1 | – | inactive: -12.3%
35 | COC(=O)c1ccc(CNC(=O)COC(=O)c2ccccc2-c2ccccc2)cc1 | inconclusive: 8.2 µM [inhibitor, single point] | –
36 | COc1ccc(-n2cc(CN3CCC(OC)CC3)c(-c3cccc(F)c3)n2)cc1 | – | inactive: -10.6%
37 | CCOC(=O)C1(CCCc2ccccc2)CCN(C(=O)c2cc(C)nn2CC)CC1 | inconclusive: 20.6 µM [inhibitor, single point] | –
38 | COc1cccc(OCCn2cccc2/C=C2/C(=N)N3OC(C)=CC3=NC2=O)c1 | inconclusive: 20.6 µM [inhibitor, single point] | –
39 | O=C(Oc1ccc(O)cc1)C12CC3CC(CC(C3)C1)C2 | inconclusive: 16.4 µM [inhibitor, single point] | –
40 | CCN1CCN(Cc2ccc(NC(=O)Nc3ccc(SC)cc3)cc2)CC1 | inconclusive: 10.3 µM [activator, partial curve] | –
41 | COc1cccc(CN2CCN(Cc3cccc4nonc34)CC2CCO)c1 (stereo not drawn) | – | inactive: 8.94%
42 | COc1cccc(-c2nnc(SCC(=O)N3CCCc4ccccc43)o2)c1 | inconclusive: 32.6 µM [inhibitor, partial curve, poor fit] | –
43 | CS(=O)(=O)N(CC(=O)NCCSCc1ccccc1)c1ccccc1Br | – | inactive: -12.4%
44 | COc1ccc(C2C3(C#N)C(N)=NC(OC)(OC)C23C#N)cc1 (stereo not drawn) | inconclusive: 20.6 µM [inhibitor, partial curve, poor fit] | –
45 | O=C(Cc1ccccc1)Nc1cc(C(=O)c2ccccc2)ccc1N1CCOCC1 | active: 25.9 µM | –
46 | CCOC(=O)C(NC(=O)c1ccccc1)(OCc1ccc(F)cc1)C(F)(F)F (stereo not drawn) | – | inactive: 8.13%
47 | COc1ccccc1N(CC(=O)NCC1CCCO1)C(=O)CNS(=O)(=O)c1ccc(Cl)cc1 (stereo not drawn) | – | inactive: 1.21%
48 | Cc1ccc(S(=O)(=O)Nc2c(NC3CCCCC3)c3ccccc3oc2=O)c(C)c1 | – | inactive: 0.126%
49 | COc1ccccc1N1CCN(CC(=O)Nc2ccccc2C(=O)NC(C)c2ccccc2)CC1 (stereo not drawn) | active: 2.91 µM | –
50 | O=C(/C=C\Nc1ccc2c(c1)OCO2)c1cccs1 | inconclusive: 0.82 µM [activator, partial curve] | –

Row | Compound | Potency | activity change, negative = inhibition
51 | O=C1C(Cl)=C(Nc2ccc3cn[nH]c3c2)C(=O)c2ccccc21 | inconclusive: 29.1 µM [inhibitor, single point] | –
52 | O=C(CSc1nnc(-c2ccccc2Br)o1)Nc1nncs1 | – | inactive: 13%
53 | O=C(CNC(=O)c1ccccc1)NCC(=O)OCC(=O)c1ccc(F)cc1 | – | inactive: -1.51%
54 | Cc1ccc(NC(=O)c2cc(S(=O)(=O)N3CCc4ccccc43)cn2C)cc1 | – | inactive: -26.7%
55 | Cc1ccc(S(=O)(=O)N2CC(O)CC2C(=O)OCC(=O)c2ccccc2Cl)cc1C (stereo not drawn) | inconclusive: 29.1 µM [activator, single point] | –
56 | C/C(=N\NC(=O)c1ccccc1)c1ccccc1Br | inconclusive: 20.6 µM [activator, partial curve] | –
57 | CCOc1ccc(C(C)=O)cc1CN1C(=O)NC2(CCCCC2C)C1=O (stereo not drawn) | inconclusive: 13 µM [activator, partial curve, poor fit] | –
58 | COc1ccc(CC(=O)N(Cc2ccccc2)c2ccc(C)cc2)cc1OC | – | inactive: 29.9%
59 | Cc1ccc(CNC(=O)Nc2cccs2)cc1 | inconclusive: 23.1 µM [activator, partial curve] | –
60 | O=C(Nc1cccc(-c2nc3ccccc3c(=O)o2)c1)c1ccccc1 | – | inactive: 3.71%
61 | CCn1ncc(C2=NOC(C(=O)Nc3ccccc3C(=O)OC)C2)c1C (stereo not drawn) | inconclusive: 29.1 µM [inhibitor, single point] | –
62 | CC(=O)N1CCN(Cc2nc3cc(NC(=O)c4cccc(Br)c4)ccc3n2C)CC1 | active: 8.2 µM | –
63 | O=C1CCC/C1=c1\s/c(=C\c2cccnc2)c(=O)n1-c1ccccc1 | active: 13 µM | –
64 | COc1ccc(-c2cc3ccccc3oc2=O)cc1NC(=O)c1ccc(Br)o1 | inconclusive: 0.92 µM [activator, partial curve] | –
65 | O=C(Nc1ccccn1)c1ccc(Cl)c([N+](=O)[O-])c1 | inconclusive: 18.3 µM [activator, single point] | –
66 | c1ccn2cc(CSc3nnc4ccccn34)nc2c1 | inconclusive: 5.8 µM [activator, partial curve] | –
67 | CCN(CC)S(=O)(=O)c1ccc(NC(=O)c2ccc(N3CCCC3=O)cc2)cc1 | inconclusive: 6.51 µM [inhibitor, partial curve] | –
68 | O=C(CCS(=O)(=O)c1ccccc1)OCc1ccc([N+](=O)[O-])cc1 | inconclusive: 14.6 µM [activator, single point] | –
69 | Cc1ccc(NC(=S)N(Cc2cccs2)Cc2cc3cc(C)cc(C)c3[nH]c2=O)cc1 | inconclusive: 4.11 µM [inhibitor, single point] | –
70 | Cc1c(Cl)cccc1N=c1c([N+](=O)[O-])nn(-c2ccccc2)n1O | inconclusive: 14.6 µM [activator, single point] | –
71 | CCc1ccc(NC(=O)C2=CC(c3ccc(OC)c(OC)c3)=NS(=O)(=O)N2C)cc1 | active: 13 µM | –
72 | Cc1ccccc1-n1ncc2c([N+](=O)[O-])cc([N+](=O)[O-])cc21 | inconclusive: 0.651 µM [activator, partial curve, poor fit] | –
73 | CCN1CCc2nc3sc(C(=O)N4CCc5ccccc5C4)c(N)c3cc2C1 | – | inactive: 7.84%
